The record followed here is publication PMC12678687.

B1: BSL3 (BSU-LIKE3), endogenous (enzyme, UniProt Q9SHS7 1-1006)
chain: MDLDSSMVPENDQDPIATSENQSPMEEKEEASEQQTGSESESASLTPSLPPPSQQQQQQQQQPQVTAVVGPRCAPTYSVVNAIIEKKEDGPGPRCGHTLTAVPAVGEEGTSSYIGPRLILFGGATALEGNSGGTGTPTSAGSAGIRLAGATADVHCYDVLSNKWSRLTPYGEPPSPRAAHVATAVGTMVVIQGGIGPAGLSAEDLHVLDLTQQRPRWHRVVVQGPGPGPRYGHVMALVGQRYLMAIGGNDGKRPLADVWALDTAAKPYEWRKLEPEGEGPPPCMYATASARSDGLLLLCGGRDANSVPLASAYGLAKHRDGRWEWAIAPGVSPSARYQHAAVFVNARLHVSGGALGGGRMVEDSSSVAVLDTAAGVWCDTKSVVTSPRTGRYSADAAGGDASVELTRRCRHAAAAVGDLIFIYGGLRGGVLLDDLLVAEDLAAAETTSAASHAAAAAAATNTPPGRSPGRYGFSDERTGELPESAPDAVVLGSPVAPPVNGDMYTDISTENAMVPGIRRTSKGVEYLVEASAAEAEAISATLAAAKARQVNGEVELPDRDRGAEATPSGKPSLSLIKPDSAVPNSVIPAGVRLHHRAVVVAAETGGALGGMVRQLSIDQFENEGRRVSYGTPESATAARKLLDRQMSINSVPKKVVAHLLKPRGWKPPVRRQFFLDCNEIADLCDSAERIFSSEPTVLQLKAPIKIFGDLHGQFGDLMRLFDEYGSPSTAGDISYIDYLFLGDYVDRGQHSLETITLLLALKVEYQHNVHLIRGNHEAADINALFGFRIECIERMGERDGIWVWHRINRLFNWLPLAALIEKKIICMHGGIGRSINHVEQIENIQRPITMEAGSIVLMDLLWSDPTENDSVEGLRPNARGPGLVTFGPDRVMEFCNNNDLQLIVRAHECVMDGFERFAQGHLITLFSATNYCGTANNAGAILVLGRDLVVVPKLIHPLPPAITSPETSPERHIEDTWMQELNVNRPPTPTRGRPQNPNDRGSLAWI
B2: BSL2 (BSU-LIKE2), endogenous (enzyme, UniProt Q9SJF0 1-1018)
chain: MDEDSSMVADNDQDREFQSLDGGQSPSPMERETPQQMNDQSPPPEGGSVPTPPPSDPNPATSQQQAAAVVGQEQQPALVVGPRCAPTYSVVDAMMDKKEDGPGPRCGHTLTAVPAVGDEGTPGYIGPRLVLFGGATALEGNSGGTGTPTSAGSAGIRLAGATADVHCYDVLSNKWTRLTPFGEPPTPRAAHVATAVGTMVVIQGGIGPAGLSAEDLHVLDLTQQRPRWHRVVVQGPGPGPRYGHVMALVGQRYLMAIGGNDGKRPLADVWALDTAAKPYEWRKLEPEGEGPPPCMYATASARSDGLLLLCGGRDANSVPLASAYGLAKHRDGRWEWAIAPGVSPSSRYQHAAVFVNARLHVSGGALGGGRMVEDSSSVAVLDTAAGVWCDTKSVVTSPRTGRYSADAAGGDASVELTRRCRHAAAAVGDLIFIYGGLRGGVLLDDLLVAEDLAAAETTYAASHAAAAAATNSPPGRLPGRYGFSDERNRELSESAADGAVVLGSPVAPPVNGDMHTDISPENALLPGTRRTNKGVEYLVEASAAEAEAISATLAAAKARQVNGEVELPDRDCGAEATPSGKPTFSLIKPDSMGSMSVTPAGIRLHHRAVVVAAETGGALGGMVRQLSIDQFENEGRRVSYGTPESATAARKLLDRQMSINSVPKKVIAHLLKPRGWKPPVRRQFFLDCNEIADLCDSAERIFASEPTVLQLKAPIKIFGDLHGQFGDLMRLFDEYGSPSTAGDISYIDYLFLGDYVDRGQHSLETISLLLALKVEYQHNVHLIRGNHEAADINALFGFRIECIERMGERDGIWVWHRINRLFNWLPLAASIEKKIICMHGGIGRSINHVEQIENIQRPITMEAGSIVLMDLLWSDPTENDSVEGLRPNARGPGLVTFGPDRVMEFCNNNDLQLIVRAHECVMDGFERFAQGHLITLFSATNYCGTANNAGAILVLGRDLVVVPKLIHPLPPALSSPETSPERHIEDTWMQELNANRPATPTRGRPQNSNDRGGSLAWM
B3: BSL1 (BSU-LIKE1), endogenous (enzyme, UniProt Q8L7U5 1-881)
chain: MGSKPWLHPAPQYKTLETFWDDEDDAPGPRCAHTLTAVAATKTHGPRLILFGGATAIEGGSSSVPGIRLAGVTNTVHSYDILTRKWTRLKPAGEPPSPRAAHAAAAVGTMVVFQGGIGPAGHSTDDLYVLDMTNDKFKWHRVVVQGDGPGPRYGHVMDLVSQRYLVTVTGNDGKRALSDAWALDTAQKPYVWQRLNPDGDRPSARMYASGSARSDGMFLLCGGRDTLGAPLGDAYGLLMHRNGQWEWTLAPGVAPSPRYQHAAVFVGARLHVSGGVLRGGRVIDAEASVAVLDTAAGVWLDRNGQVTSARGSKGQIDQDPSFELMRRCRHGAASVGIRIYVHGGLRGDVLLDDFLVAENSTFQSDISSPLLASDRTQQSSTPRFSYAARPPSGSEPSFSMSEGLSLDENSLEKLTEASAAEAEVASSVWRAAQLGAGTLDEEPSTSDASSPIVESTTDGTANEGDVRLHPRAVVVAKETVGSLGGMVRQLSLDQFQNESRRMVPMNNSDVPQPTKKFTRQKSPQGLHKKVIAALLRPRNWKPPGNRKFFLDSYEVGELCYAAEQIFMHEQTVLQLKAPIKVFGDLHGQFGDLMRLFDEYGFPSTAGDITYIDYLFLGDYVDRGQHSLETITLLLALKIEYPENVHLIRGNHEAADINALFGFRLECIERMGENDGIWAWTRFNQLFNYLPLAALIENKIICMHGGIGRSISTVEQIEKIERPITMDAGSLVLMDLLWSDPTENDSIEGLRPNARGPGLVTFGPDRVTEFCKRNKLQLIIRAHECVMDGFERFAQGQLITLFSATNYCGTANNAGAILVVGRGLVIVPKLIHPLPPPILSPENSPEHSGDDAWMQELNIQRPPTPTRGRPQPDFDRSSLAYI

These are yes or no findings as the source states them, for the method shown. In cells and extracts the contact can be indirect. These calls come from enrichment with a bait or labelling near it, and not all partners need be listed. Tags and fused reporters may be left off the sequences shown.

In this test the target is T1, PXL1-FLAG (PXY-LIKE1) from PXL1:PXL1-FLAG transgenic Arabidopsis (Arabidopsis thaliana) (UniProt Q9FRS6).
T1 sequence: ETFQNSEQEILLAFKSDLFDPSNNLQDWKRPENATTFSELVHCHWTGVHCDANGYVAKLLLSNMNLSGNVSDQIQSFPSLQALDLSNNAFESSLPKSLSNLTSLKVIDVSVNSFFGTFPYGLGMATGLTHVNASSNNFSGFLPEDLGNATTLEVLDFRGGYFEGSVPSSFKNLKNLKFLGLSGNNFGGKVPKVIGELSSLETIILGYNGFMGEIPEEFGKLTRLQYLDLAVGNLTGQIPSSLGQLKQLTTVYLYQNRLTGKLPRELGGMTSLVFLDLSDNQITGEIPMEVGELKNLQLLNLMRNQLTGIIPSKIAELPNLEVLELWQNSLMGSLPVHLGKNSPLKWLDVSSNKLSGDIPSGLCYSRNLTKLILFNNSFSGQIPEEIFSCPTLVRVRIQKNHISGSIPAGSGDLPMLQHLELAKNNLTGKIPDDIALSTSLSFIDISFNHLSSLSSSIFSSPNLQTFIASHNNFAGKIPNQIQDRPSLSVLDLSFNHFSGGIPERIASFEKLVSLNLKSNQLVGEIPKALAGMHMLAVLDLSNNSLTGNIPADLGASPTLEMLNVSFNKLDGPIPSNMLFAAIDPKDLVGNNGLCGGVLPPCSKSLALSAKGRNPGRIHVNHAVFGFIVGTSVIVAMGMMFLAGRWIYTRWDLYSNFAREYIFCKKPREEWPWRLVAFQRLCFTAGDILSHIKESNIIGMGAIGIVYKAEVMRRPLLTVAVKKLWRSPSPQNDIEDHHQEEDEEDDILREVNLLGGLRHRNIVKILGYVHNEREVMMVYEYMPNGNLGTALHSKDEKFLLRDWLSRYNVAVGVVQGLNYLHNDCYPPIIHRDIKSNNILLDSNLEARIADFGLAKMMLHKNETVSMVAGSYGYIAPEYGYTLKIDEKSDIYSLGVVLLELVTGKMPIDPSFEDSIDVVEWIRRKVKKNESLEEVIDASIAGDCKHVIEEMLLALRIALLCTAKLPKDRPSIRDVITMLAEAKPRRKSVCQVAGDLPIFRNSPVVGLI
Kind of test: affinity purification with mass spectrometry; Co-IP/MS from inflorescence of PXL1:PXL1-FLAG transgenic plants.
As for B1, the binding result was “binds”.
Turning to B2, the binding result is reported as “binds”.
Take B3: the binding entry is on record as “binds”.
